Assay results from paper PMC6755085, “Cyclic oligoadenylate signalling mediates Mycobacterium tuberculosis CRISPR defence” (Nucleic Acids Research, 2019).
No constants are given. Whether binding was seen depends on the method and setting. Binding seen in cells or lysates may run through a third protein. Some results given as binding are weak or reduced against the parent protein; the word gives no strength.

Protein sequences, listed by entry. Tags and fused reporters are not part of them.
UniProt P9WJF6: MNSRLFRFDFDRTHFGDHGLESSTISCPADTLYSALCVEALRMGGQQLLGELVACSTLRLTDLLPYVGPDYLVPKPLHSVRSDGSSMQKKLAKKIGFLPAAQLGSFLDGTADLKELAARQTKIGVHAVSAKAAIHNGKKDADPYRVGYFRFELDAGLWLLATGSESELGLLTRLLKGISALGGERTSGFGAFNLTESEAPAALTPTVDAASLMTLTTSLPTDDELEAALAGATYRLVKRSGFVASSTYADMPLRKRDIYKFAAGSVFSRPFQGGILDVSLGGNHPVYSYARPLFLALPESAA
UniProt P9WJF4: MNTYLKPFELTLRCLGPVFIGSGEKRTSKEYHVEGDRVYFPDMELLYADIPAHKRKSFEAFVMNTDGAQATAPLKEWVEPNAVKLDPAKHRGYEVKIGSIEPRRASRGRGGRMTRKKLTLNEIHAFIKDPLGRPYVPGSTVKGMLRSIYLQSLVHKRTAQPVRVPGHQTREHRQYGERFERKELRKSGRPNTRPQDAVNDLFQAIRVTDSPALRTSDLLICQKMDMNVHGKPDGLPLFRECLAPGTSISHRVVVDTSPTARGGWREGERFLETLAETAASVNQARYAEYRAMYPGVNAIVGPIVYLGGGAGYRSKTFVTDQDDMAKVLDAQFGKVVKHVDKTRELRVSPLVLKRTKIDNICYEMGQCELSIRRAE

Target: Mycobacterium tuberculosis Csm4 (Cas5), His6-tagged (Mycobacterium tuberculosis) (UniProt P9WJF6)
Assay: pull-down

Mycobacterium tuberculosis Csm5 (from UniProt P9WJF4 1-375)
binding: binds
